Data reported in paper PMC9482802.
These are yes or no findings as the source states them, for the method shown. In cells and extracts the contact can be indirect. Some entries that bind do so weakly or less than the wild type.

Protein sequences, listed by entry. Tags and fused reporters are not part of them.
UniProt Q9NQB0: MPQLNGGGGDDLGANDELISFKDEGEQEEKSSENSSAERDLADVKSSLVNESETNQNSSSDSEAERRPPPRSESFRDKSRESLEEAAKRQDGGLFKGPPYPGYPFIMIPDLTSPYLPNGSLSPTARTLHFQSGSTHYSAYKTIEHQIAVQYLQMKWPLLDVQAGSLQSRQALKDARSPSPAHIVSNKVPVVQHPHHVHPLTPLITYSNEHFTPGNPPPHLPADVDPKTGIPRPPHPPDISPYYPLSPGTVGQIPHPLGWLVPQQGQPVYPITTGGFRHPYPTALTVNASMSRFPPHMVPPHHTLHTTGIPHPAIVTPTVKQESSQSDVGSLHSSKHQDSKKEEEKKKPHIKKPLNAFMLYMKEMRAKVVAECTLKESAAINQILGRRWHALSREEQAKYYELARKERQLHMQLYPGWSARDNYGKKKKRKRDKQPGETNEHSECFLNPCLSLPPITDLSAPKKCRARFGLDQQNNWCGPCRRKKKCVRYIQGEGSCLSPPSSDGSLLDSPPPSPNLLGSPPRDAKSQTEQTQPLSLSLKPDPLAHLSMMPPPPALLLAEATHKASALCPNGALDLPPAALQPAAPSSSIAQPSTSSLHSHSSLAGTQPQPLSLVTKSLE
UniProt Q04206: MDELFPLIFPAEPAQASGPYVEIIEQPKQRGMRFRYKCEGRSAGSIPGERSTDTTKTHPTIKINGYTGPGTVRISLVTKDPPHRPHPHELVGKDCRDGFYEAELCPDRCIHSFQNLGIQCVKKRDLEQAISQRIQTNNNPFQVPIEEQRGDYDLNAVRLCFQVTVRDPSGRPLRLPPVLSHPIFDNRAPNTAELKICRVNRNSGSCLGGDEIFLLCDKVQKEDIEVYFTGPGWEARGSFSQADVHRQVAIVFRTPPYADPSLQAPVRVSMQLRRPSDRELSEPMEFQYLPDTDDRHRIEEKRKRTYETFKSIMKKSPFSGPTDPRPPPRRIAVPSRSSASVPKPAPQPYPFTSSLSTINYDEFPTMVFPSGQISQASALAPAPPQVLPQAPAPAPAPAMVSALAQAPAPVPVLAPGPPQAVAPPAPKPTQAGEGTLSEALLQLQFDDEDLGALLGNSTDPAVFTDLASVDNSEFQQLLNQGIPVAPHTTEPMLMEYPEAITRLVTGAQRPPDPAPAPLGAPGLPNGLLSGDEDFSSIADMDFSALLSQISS

Target: HA-TCF4 (TCF7L2) (human) (UniProt Q9NQB0)
Test: co-IP; U87 cells expressing HA-TCF4N, HA-TCF4 or HA-TCF4∆N together with the p65 vector (Flag-p65); IP using HA antibody, IgG as a negative control, immunoblot

## Flag-p65 (RELA, p65 subunit of NF-κB) (from UniProt Q04206 1-551)
  binding: binds weakly
